Laboratory results taken from PubChem BioAssay AID743255 (National Center for Advancing Translational Sciences (NCATS), 2014).
The campaign covered roughly 390,000 compounds. About 910 (0.23%) were called active. The shares of active, inactive and inconclusive entries below differ from those in the screen. Calls follow the shape of the dose curve; as a rule, active = well fitted inhibition curve with a large enough effect; inconclusive = small, poorly fitted or top-dose-only effect; inactive = no such curve, though single readings can be large or run the other way. A potency beside an inconclusive call is a rough fit, not a confirmed value.

The chains behind the UniProt entries cited, without tags or fusion partners. Where a name states a change or a piece, a line headed by the entry shows the natural chain unless it says otherwise.
UniProt O94782: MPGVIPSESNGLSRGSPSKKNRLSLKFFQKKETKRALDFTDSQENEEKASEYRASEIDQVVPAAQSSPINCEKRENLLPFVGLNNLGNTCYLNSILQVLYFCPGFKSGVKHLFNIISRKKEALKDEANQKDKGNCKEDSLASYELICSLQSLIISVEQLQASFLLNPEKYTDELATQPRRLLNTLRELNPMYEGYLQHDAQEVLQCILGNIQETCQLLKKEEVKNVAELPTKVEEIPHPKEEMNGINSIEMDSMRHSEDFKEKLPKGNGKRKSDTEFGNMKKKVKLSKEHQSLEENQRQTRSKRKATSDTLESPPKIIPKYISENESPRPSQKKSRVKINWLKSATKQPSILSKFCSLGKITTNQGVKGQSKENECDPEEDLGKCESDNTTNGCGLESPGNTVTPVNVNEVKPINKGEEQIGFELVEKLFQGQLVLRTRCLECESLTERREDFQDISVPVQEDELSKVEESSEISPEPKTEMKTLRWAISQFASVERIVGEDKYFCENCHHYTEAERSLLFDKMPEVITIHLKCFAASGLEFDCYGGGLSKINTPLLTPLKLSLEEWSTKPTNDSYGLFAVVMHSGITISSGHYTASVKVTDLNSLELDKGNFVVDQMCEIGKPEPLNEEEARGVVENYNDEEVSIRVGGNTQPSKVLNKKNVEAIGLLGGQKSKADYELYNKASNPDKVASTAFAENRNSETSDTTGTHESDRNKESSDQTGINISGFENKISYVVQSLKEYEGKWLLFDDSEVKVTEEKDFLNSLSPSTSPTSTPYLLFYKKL

These compounds were tested against Ubiquitin carboxyl-terminal hydrolase 1 (Homo sapiens) (UniProt O94782) (assay: Inhibitors of USP1/UAF1: Primary Screen). Settings: recombinant USP1/UAF1, Ub-Rhodamine cleavage fluorescence; activity change, negative = inhibition: at 57.1 µM (top of the series).
Summary of the method: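 Step one: compound is pinned into 1nM USP1/UAF1 in HEPES pH 7.8 buffer with TCEP. Step two: 15 min room-temperature incubation. Step three: Ub-Rho (150nM final) starts cleavage, tracked by fluorescence over six one-minute reads.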
% is scaled to controls: 0 for no effect and ±100 for the full control effect; potency is read from the fitted curve at half-maximal effect.
Also: nearly all actives have a fitted effect of over 60% in size.

Structure (SMILES) | Potency | activity change, negative = inhibition
CSc1nn(CC(=O)Nc2ccc(C)cc2C)c(N)c1S(=O)(=O)c1ccc(Cl)cc1 | inconclusive: 0.316 µM [inhibitor, full curve, poor fit] | –
COc1ccc2ccccc2c1CNC(C)c1ccccc1 (centres undefined) | inactive | –
Cc1nc(N2CCN(c3ccccc3O)CC2)c2c(-c3ccccc3)csc2n1 | inconclusive: 0.708 µM [inhibitor, full curve] | –
Cc1ccc(S(=O)(=O)Nc2ccc(C(=O)N3CCCC3)cc2)c(C)c1NS(C)(=O)=O | inconclusive: 50.1 µM [inhibitor, partial curve, poor fit] | –
CCOc1ccc(S(=O)(=O)NCC(c2ccco2)S(=O)(=O)c2ccc(C)cc2)cc1 (centres undefined) | inconclusive: 0.224 µM [inhibitor, full curve, poor fit] | –
O=[N+]([O-])c1ccc(CSc2nnc(Cc3ccccc3)o2)cc1 | inconclusive: 0.398 µM [inhibitor, full curve] | –
CCCCCn1c(NC(=O)c2ccco2)c(S(=O)(=O)c2ccc(C)cc2)c2nc3ccccc3nc21 | inconclusive: 28.2 µM [inhibitor, partial curve] | –
C[C@@H]1C[C@H]2[C@@H]3CCC4=CC(=O)C=C[C@]4(C)[C@@]3(Cl)[C@@H](O)C[C@]2(C)[C@@]1(OC(=O)c1ccco1)C(=O)CCl | inconclusive: 28.2 µM [inhibitor, single point] | –
CC1=Nc2ccccc2/C1=C/c1sc(=N)n(-c2nccs2)c1O | inactive | –
O=C(NC1CCCCCC1)C1CC(=O)N(c2ccc(Cl)cc2)C1 (centres undefined) | inconclusive: 44.7 µM [inhibitor, partial curve, poor fit] | –
COc1ccc(NC(=O)C(=O)NCCc2sc(-c3ccc(Cl)cc3)nc2C)cc1 | inconclusive: 3.16 µM [inhibitor, full curve] | –
COc1ccc(C2=C(C(C)=O)Sc3nnc(-c4ccc(C)cc4)n3N2C(C)=O)cc1OC | inactive | –
Cc1ccc(C)c(NC(=S)Nc2cccc3cnccc23)c1 | inconclusive: 31.6 µM [inhibitor, partial curve] | –
CCc1ccccc1NC(=S)N1N=CCC1c1ccccc1 (centres undefined) | inconclusive: 7.94 µM [inhibitor, partial curve, poor fit] | –
Cc1sc2ncn(CC(=O)N3CCN(c4ccccn4)CC3)c(=O)c2c1S(=O)(=O)N1CCC(C)CC1 | – | inconclusive: -7.83% [inhibitor]
CC1CCN(c2cc3c(cc2F)c(=O)c(S(=O)(=O)c2cccc(Cl)c2)cn3Cc2ccccc2)CC1 | inconclusive: 7.94 µM [inhibitor, partial curve, poor fit] | –
COc1ccccc1CNS(=O)(=O)c1ccc(-c2cc(C(F)(F)F)on2)s1 | inconclusive: 1 µM [inhibitor, full curve] | –
CCc1ccc(Nc2n[n+](-c3ccccc3)c(-c3c(Cl)cccc3Cl)s2)cc1 | inactive | –
CCCSc1nc2c3c(sc2c(=O)[nH]1)CC(C)(CC)OC3 (centres undefined) | inactive | –
COc1ccc(/C=N/Nc2nc(-c3cccc(S(=O)(=O)N4CCCC4)c3)cs2)cc1OC | inactive | –
Cc1cccc(C(=O)NC2CCN(S(=O)(=O)c3ccc(F)cc3)CC2)c1 | inconclusive: 44.7 µM [inhibitor, partial curve] | –
O=C1C(NS(=O)(=O)c2cccs2)=C(N2CCN(Cc3ccccc3)CC2)C(=O)c2ccccc21 | inconclusive: 39.8 µM [inhibitor, partial curve] | –

3 compounds out of the list, arranged by count of non-hydrogen atoms, descending.
Structure (SMILES) | Potency | activity change, negative = inhibition
CC1CCN(c2cc3c(cc2F)c(=O)c(S(=O)(=O)c2cccc(Cl)c2)cn3Cc2ccccc2)CC1 | inconclusive: 7.94 µM [inhibitor, partial curve, poor fit] | –
O=C(NC1CCCCCC1)C1CC(=O)N(c2ccc(Cl)cc2)C1 (centres undefined) | inconclusive: 44.7 µM [inhibitor, partial curve, poor fit] | –
Cc1ccc(C)c(NC(=S)Nc2cccc3cnccc23)c1 | inconclusive: 31.6 µM [inhibitor, partial curve] | –

(further entries)

Structure (SMILES) | Potency | activity change, negative = inhibition
CCOC(=O)c1c(NC(=O)C2C3CCC(O3)C2C(=O)O)sc(C)c1-c1ccc(F)cc1 (centres undefined) | inactive | –
O=C(CSc1nnc(-c2ccccn2)o1)Nc1ccccc1 | inconclusive: 4.47 µM [inhibitor, single point] | –
O=C(NNC(=S)Nc1ccc(C(=O)O)c(O)c1)c1ccncc1 | inconclusive: 0.708 µM [inhibitor, full curve] | –
COc1ccc(OC)c(NC(=O)CCNS(=O)(=O)c2cccc3nsnc23)c1 | inconclusive: 39.8 µM [inhibitor, single point] | –
Cc1ccc(NCC(=O)N/N=C/c2c[nH]c3ccccc23)cc1 | inconclusive: 8.91 µM [inhibitor, partial curve, poor fit] | –
CCOC(=O)c1c(NC(=O)c2ccc(S(=O)(=O)N3CCC(C)CC3)cc2)sc2c1CCN(C(C)C)C2 | inconclusive: 50.1 µM [inhibitor, partial curve] | –
COc1ccc(C(=O)NNC(=O)c2ccc3ccccc3c2O)cc1 | inactive | –
Cc1oc(-c2ccccc2)nc1Cn1c(SCc2cccc(C(F)(F)F)c2)nc2cccnc21 | inactive | –
Cc1ccc(C)c(N2CCN(C(=O)c3ccc(N4CCOCC4)c([N+](=O)[O-])c3)CC2)c1 | inconclusive: 8.91 µM [inhibitor, partial curve, poor fit] | –
O=C(c1ccco1)N(Cc1ccc([N+](=O)[O-])cc1)c1ccc(Br)cc1 | inconclusive: 11.2 µM [inhibitor, full curve, poor fit] | –
CCc1ccc(CN2C(=O)c3ccccc3C2C(=O)NC2CCCCCC2)cc1 (centres undefined) | inconclusive: 0.251 µM [inhibitor, full curve, poor fit] | –
C[C@H](CO)N1C[C@H](C)[C@@H](CN(C)S(=O)(=O)c2ccc(F)cc2)Oc2ccc(NC(=O)NC3CCCCC3)cc2C1=O | inconclusive: 44.7 µM [inhibitor, partial curve, poor fit] | –
CCS(=O)(=O)C1=NSC2=NC(=O)/C(=C\c3ccc(OC(=O)c4ccco4)cc3)C(=N)N21 | inconclusive: 22.4 µM [inhibitor, partial curve] | –
CCCOc1ccccc1/C=N/Nc1ccnc(=O)[nH]1 | inconclusive: 1.41 µM [inhibitor, partial curve, poor fit] | –
Cn1c(Cc2cccs2)nnc1SCc1nc2ccccc2[nH]1 | inactive | –
COc1ccc(C(=O)C2CCCN(Cc3ccc(NC(C)=O)cc3)C2)cc1OC (centres undefined) | inactive | –
Cc1ccccc1Cn1cnc2nc3c(cc2c1=O)CC(C)CC3 (centres undefined) | inconclusive: 2.24 µM [inhibitor, partial curve] | –
O=C(Cn1c(=O)c2ccccc2n2nncc12)Nc1cccc(F)c1 | inactive | –
CCC1NC(C(=O)O)Cc2c1[nH]c1ccccc21 (centres undefined) | inconclusive: 31.6 µM [inhibitor, partial curve] | –
CCOc1ccc(CNC(=O)CCn2c(=O)c3cccn3c3ccc(F)cc32)cc1 | inconclusive: 0.708 µM [inhibitor, full curve, poor fit] | –
O=C(Nc1cccc(C(F)(F)F)c1)Nc1cccs1 | inconclusive: 44.7 µM [inhibitor, partial curve] | –
COc1ccc(-c2cc3ccc(O)cc3oc2=O)cc1OC | inactive | –

Structure (SMILES) | Potency | activity change, negative = inhibition
CC(=NC1CC1)c1c(-c2ccccc2)[nH]n(-c2nc3ccccc3s2)c1=O | inconclusive: 39.8 µM [inhibitor, partial curve, poor fit] | –
COc1cccc(NC(=O)Nc2ccccc2SC)c1 | inactive | –
COc1ccc([N+](=O)[O-])cc1N(CC(=O)NCCSc1ccccc1)S(C)(=O)=O | inconclusive: 35.5 µM [inhibitor, partial curve, poor fit] | –
C[C@H](NC(=O)c1nc[nH]c1C(=O)N[C@@H](Cc1ccccc1)C(=O)OC(C)(C)C)C(=O)OC(C)(C)C | inconclusive: 56.2 µM [inhibitor, partial curve, poor fit] | –
CCOC(=O)c1ccc(NC(=S)NCCc2ccc(OC)c(OC)c2)cc1 | inconclusive: 7.94 µM [inhibitor, partial curve, poor fit] | –
COCCCNC(=O)c1ccc2c(c1)nc1n2CCCCC1 | inconclusive: 0.0708 µM [inhibitor, full curve, poor fit] | –
O=C(NC1CCCCC1)c1ccc(CSc2nc3ccncc3n2Cc2ccccc2F)cc1 | inactive | –
COc1ccc(OC)c(-c2cc(C(=O)Nc3sc4c(c3C#N)CCC(C)C4)c3ccccc3n2)c1 (centres undefined) | inactive | –
CCN1CC=C2C(C1)C(c1ccc(Cl)s1)C(C#N)=C(N)C2(C#N)C#N (centres undefined) | inconclusive: 28.2 µM [inhibitor, partial curve] | –
CCOC(=O)c1oc2ccc(CNCCO)c(Cl)c2c1C | inactive | –
N/C(=N\OC(=O)c1cc([N+](=O)[O-])ccc1Cl)c1ccccn1 | inconclusive: 31.6 µM [inhibitor, single point] | –
CCOC(=O)c1c(C)n(-c2ccccc2)c2ccc(OC(=O)c3cccc(Cl)c3)cc12 | inconclusive: 5.62 µM [inhibitor, partial curve, poor fit] | –
CC(=O)Nc1cccc(Nc2nc(-c3ccccc3)nc3ccccc23)c1 | inactive | –
COc1ccc(NC(=O)C2C(c3ccccc3)C2(Cl)Cl)c(OC)c1 (centres undefined) | inconclusive: 1.58 µM [inhibitor, full curve, poor fit] | –
CCOc1ccc(NC2=C(OC)C(=O)c3ccccc3C2=O)cc1 | inconclusive: 44.7 µM [inhibitor, partial curve] | –
CCOc1ccc(NC(=O)c2ccc3snnc3c2)cc1 | inactive | –
CS/C(=C\C(=O)c1ccco1)Nc1ccccc1Cl | inconclusive: 20 µM [inhibitor, partial curve] | –
Cc1cccc(CCNS(=O)(=O)c2ccc3c(c2)n(C)c(=O)c(=O)n3C)c1 | inconclusive: 0.708 µM [inhibitor, full curve, poor fit] | –
CN(C(=O)COc1ncnc2ccc(Br)cc12)C1CCCCC1 | inconclusive: 44.7 µM [inhibitor, partial curve] | –
COc1cc(/C=C2\SC(=Nc3ccccc3)N(CCc3c[nH]c4ccccc34)C2=O)ccc1OC(C)C(=O)O (centres undefined) | inactive | –
